Assay results reported in US20250381168A1, “VLA4 INHIBITORS AND USES THEREOF” (Washington University, priority 2022, published 2025).
“Also recorded” adds a separate entry of the source. At least one compound was matched to its structure with a doubt left. Some compounds share one wording; it may come from a single statement.

System: hematopoietic stem/progenitor cells (HSPCs)
Test: HSPC mobilization into peripheral blood, colony forming unit (CFU) assay; on HSPC mobilization, result in words: test concentration or dose not given here
Settings: mice; for HSPC mobilization, result in words: single dose

Row | SMILES | HSPC mobilization, result in words | HSPC mobilization in the triple combination regimen with plerixafor and truncated Groβ
1 | CCOCc1cc(OC)c(-c2ccc(C[C@H](NC(=O)c3c(F)cccc3F)C(=O)O)cc2)c(OC)c1 [Firategrast, firategrast] | rapid but transient mobilization of HSPCs but are returning to baseline by 2 hours; also recorded: lack of any appreciable HSC mobilization | –
2 | COCCOCCOCCOCCOCCOCCOCCOCCSCc1cc(OC)c(-c2ccc(C[C@H](NC(=O)[C@@H]3CCCN3S(=O)(=O)c3cc(Cl)cc(Cl)c3)C(=O)O)cc2)c(OC)c1 [Example C16] | do not provide the same extended mobilization as the 24 PEG unit analogues | –
3 | COc1cccc(OC)c1-c1ccc(C[C@H](NC(=O)c2c(Cl)cccc2Cl)C(=O)O)cc1 [TR-14035] | lack of any appreciable HSC mobilization | –
4 | CN(C)c1ccc2c(c1)c(=O)n(-c1ccc(C[C@H](NC(=O)c3c(Cl)cccc3Cl)C(=O)O)cc1)c(=O)n2C [Carotegrast] | lack of any appreciable HSC mobilization | –
5 | COCCOCCOCCOCCOCCOCCOCCOCCOCCOCCOCCOCCOCCOCCOCCOCCOCCOCCOCCOCCOCCOCCOCCOCCOCCOCCOCCOCCOCCOCCOCCOCCOCCOCCOCCOCCOCc1cc(OC)c(-c2ccc(C[C@H](NC(=O)[C@@H]3CCCN3S(=O)(=O)c3cc(Cl)cc(Cl)c3)C(=O)O)cc2)c(OC)c1 [Example 2] | – | high degree of extended mobilization
